{"sequences": {"note": "Sequences of proteins named here, by UniProt entry; tags and fusion partners are left off.", "UniProt Q0JBA9, entry or part of it": "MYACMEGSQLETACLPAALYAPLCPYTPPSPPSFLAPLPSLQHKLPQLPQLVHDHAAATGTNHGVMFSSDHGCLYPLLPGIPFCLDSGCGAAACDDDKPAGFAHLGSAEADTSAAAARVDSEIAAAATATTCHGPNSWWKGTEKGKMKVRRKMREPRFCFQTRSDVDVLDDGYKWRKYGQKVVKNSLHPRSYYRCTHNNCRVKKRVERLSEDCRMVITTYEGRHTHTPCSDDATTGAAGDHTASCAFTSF"}, "source": "paper PMC7819943", "about": "“Rice protein-binding microarrays: a tool to detect cis-acting elements near promoter regions in rice”", "note": "The list shows a part of the results.", "data": [{"molecular_target": "OsWRKY34 (Oryza sativa, UniProt Q0JBA9 1-250)", "assay": "protein-binding microarray (RPBM); PBS, 2% BSA, 51.3 ng/ul salmon testes DNA, 50 uM zinc acetate, 200 nM TF, 25 C, 1 h; high values mean tight binding", "conditions": "protein: recombinant; tags: N-terminal polyhistidine and DsRed monomer fusion (pET32a); label: CyDye5-dUTP incorporated in the synthesized complementary strand; 3' TTTTT single-stranded linker to array surface; dsDNA, one strand shown", "how_it_was_run": "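For the binding signal, per-feature fluorescence intensity was read in arbitrary units on an Axon 4000B scanner. Before scanning, a 2% BSA-blocked custom Agilent array made double-stranded with Cy5-dUTP was washed after 1 h at 25 °C with 200 nM protein and 50 µM zinc acetate. The proteins were Ni–NTA-purified transcription factors with N-terminal polyhistidine and DsRed fusions, expressed in E. coli BL21-CodonPlus.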", "values": [{"sequence": "GGTGTCACCTCCTCTATCTTAGTAACTTGGCCAACTCTTCCGGAGTCACCTAGTGCAG", "binding signal": "8850 fluorescence intensity (a.u.)"}, {"sequence": "TCAGGTTTAACCGTCTGCGGACCATTTTTTTTCTAAACTTCGGAGTCACCTAGTGCAG", "binding signal": "8850 fluorescence intensity (a.u.)"}, {"sequence": "TGTTGGCATGTGGTGTTTTTCCTTGACCCTGCTTGCAGATCGGAGTCACCTAGTGCAG", "binding signal": "9170 fluorescence intensity (a.u.)"}, {"sequence": "TTAACCTCTCTCTTAATTTCAGTTTGTTTGTTCGTTCGTTCGGAGTCACCTAGTGCAG", "binding signal": "9010 fluorescence intensity (a.u.)"}, {"sequence": "TCGTGGGGCGTGGTTGGAGGTTCGCTCAAGTCGTGGTCGTCGGAGTCACCTAGTGCAG", "binding signal": "10200 fluorescence intensity (a.u.)"}, {"sequence": "TGTATCCTCGAGCTACAGATACGCTGGTCCTTGGAATTTTCGGAGTCACCTAGTGCAG", "binding signal": "8170 fluorescence intensity (a.u.)"}, {"sequence": "GTTCCCCTCGTGCCGCCCGCCTCCGCCGTCGCGTCCCCGCCGGAGTCACCTAGTGCAG", "binding signal": "8300 fluorescence intensity (a.u.)"}, {"sequence": "AGTAAATTTGTGCCCATTTCACGGTAGTACATCATCTTTCCGGAGTCACCTAGTGCAG", "binding signal": "10900 fluorescence intensity (a.u.)"}, {"sequence": "CTCGTCACTCGTCTCGTCTCGCACAGTCGCAGCTGCTGCGCGGAGTCACCTAGTGCAG", "binding signal": "8390 fluorescence intensity (a.u.)"}, {"sequence": "GGAGGGGTGGAAGGAGGGTGGTAGGAGGAATTAGATGTGTCGGAGTCACCTAGTGCAG", "binding signal": "11000 fluorescence intensity (a.u.)"}, {"sequence": "TTCTATCTAACGTGCTCCAATCGTATTTTTCTCGTATACACGGAGTCACCTAGTGCAG", "binding signal": "11500 fluorescence intensity (a.u.)"}, {"sequence": "GGTCATGCATGGGCGATGGGCCTTGTCTGTACTCTCTCTACGGAGTCACCTAGTGCAG", "binding signal": "8740 fluorescence intensity (a.u.)"}, {"sequence": "CCCTGCGTTCCGGCCCCACATGCAGTCTCACACCGCACCTCGGAGTCACCTAGTGCAG", "binding signal": "10900 fluorescence intensity (a.u.)"}, {"sequence": "TGTAGGCCCCACCTCACCACAACCGTCAGTTTTCCTTGCTCGGAGTCACCTAGTGCAG", "binding signal": "10700 fluorescence intensity (a.u.)"}, {"sequence": "AGATCAGGTTTTCTCTTTGGTTGATTGTGTGTGGAAGATCCGGAGTCACCTAGTGCAG", "binding signal": "10100 fluorescence intensity (a.u.)"}, {"sequence": "GGGCGACTGGTAATGTGTGCACTTTGACCAATCTTTTTCGCGGAGTCACCTAGTGCAG", "binding signal": "12800 fluorescence intensity (a.u.)"}, {"sequence": "CAGCCAATCACCAAAATATATTTTGCATTGTGAGGAGGGGCGGAGTCACCTAGTGCAG", "binding signal": "8760 fluorescence intensity (a.u.)"}, {"sequence": "GACGGCCGCCGCCATGCTACTGCCGAGGCGTCTTCCTCTTCGGAGTCACCTAGTGCAG", "binding signal": "8160 fluorescence intensity (a.u.)"}, {"sequence": "CCCTTTGCCTCCGCTTTTATCCCACCCGACGATGCATCGGCGGAGTCACCTAGTGCAG", "binding signal": "8300 fluorescence intensity (a.u.)"}, {"sequence": "GTTTTCTCTTAGTTTGTCCATCTTTGTCATTTTGCGCTGTCGGAGTCACCTAGTGCAG", "binding signal": "11600 fluorescence intensity (a.u.)"}, {"sequence": "AGGGACCCTCGGTGTACTTTTTCCAGCTAGGTTTGTTTTTCGGAGTCACCTAGTGCAG", "binding signal": "8900 fluorescence intensity (a.u.)"}, {"sequence": "CATCATGCCAGTCATCCACTCCACACCACCACACACTCCCCGGAGTCACCTAGTGCAG", "binding signal": "8660 fluorescence intensity (a.u.)"}, {"sequence": "TCTCTCTTCTCTCTTATTTTTTTCGCACGTGTTTATAGCTCGGAGTCACCTAGTGCAG", "binding signal": "8940 fluorescence intensity (a.u.)"}, {"sequence": "AATAGCCAATTCATACAATAGTTACGTACTACACTATTAACGGAGTCACCTAGTGCAG", "binding signal": "8860 fluorescence intensity (a.u.)"}, {"sequence": "AACACACATCAACCTGACAACCCATCGATGCACATCCATCCGGAGTCACCTAGTGCAG", "binding signal": "10300 fluorescence intensity (a.u.)"}, {"sequence": "AGATTGTCTTCATATTCCTGCCTTCTTTGTATACAAACTTCGGAGTCACCTAGTGCAG", "binding signal": "9500 fluorescence intensity (a.u.)"}, {"sequence": "TTATAGTTTATTTTCTGAATTCTCCATATACATTCTCTACCGGAGTCACCTAGTGCAG", "binding signal": "8470 fluorescence intensity (a.u.)"}, {"sequence": "CGCCGCCATTGTTCCCTTAGTCCTCCCATTACCGCGAGCCCGGAGTCACCTAGTGCAG", "binding signal": "8860 fluorescence intensity (a.u.)"}, {"sequence": "ACCCTAGCGATTTATTGGCATCCATGTTCCGATCCCTCCACGGAGTCACCTAGTGCAG", "binding signal": "8510 fluorescence intensity (a.u.)"}, {"sequence": "CAACACACTACCCTGTCTTTTTTTTTGTGCCTTTTCTTTCCGGAGTCACCTAGTGCAG", "binding signal": "11600 fluorescence intensity (a.u.)"}, {"sequence": "GGGCTGCGCTGGGTTGGGAGGACGGTTTGGTCAATGGACTCGGAGTCACCTAGTGCAG", "binding signal": "9140 fluorescence intensity (a.u.)"}, {"sequence": "ACGGTCGGACTCATGGGTGTACTGAACTGCAACGGCATTCCGGAGTCACCTAGTGCAG", "binding signal": "8140 fluorescence intensity (a.u.)"}, {"sequence": "ATCCGTGTTGTAGCCGGCTACAAATCTGTAGTCCGCTTTCCGGAGTCACCTAGTGCAG", "binding signal": "8260 fluorescence intensity (a.u.)"}, {"sequence": "CTCACAATATTTTTTTGGCACTCATTGGCACTTGTCTTCTCGGAGTCACCTAGTGCAG", "binding signal": "8770 fluorescence intensity (a.u.)"}, {"sequence": "TCCGCCGCCGCCGGTCGCCCCAGGTTATCCCGCTCCCGCACGGAGTCACCTAGTGCAG", "binding signal": "8030 fluorescence intensity (a.u.)"}, {"sequence": "CTTTTTTTTTCGTACACATGTTTTTCATACAGTCAAACTACGGAGTCACCTAGTGCAG", "binding signal": "8580 fluorescence intensity (a.u.)"}, {"sequence": "ACAGATGGAGTAGTGTCTTATAAGTTTTTTTTTCCGGTTTCGGAGTCACCTAGTGCAG", "binding signal": "8380 fluorescence intensity (a.u.)"}, {"sequence": "GTTACCGTCCTGTTGGCTGGTTATAACCGTTGTTGTCGTTCGGAGTCACCTAGTGCAG", "binding signal": "11600 fluorescence intensity (a.u.)"}, {"sequence": "AACGTTGGAAAAAAGTCAACGACTTCGTACATTAAAATATCGGAGTCACCTAGTGCAG", "binding signal": "9050 fluorescence intensity (a.u.)"}, {"sequence": "GGCCGATTCGATGTTAGACTTCTCCTGGTTTTGTGTGTTACGGAGTCACCTAGTGCAG", "binding signal": "12400 fluorescence intensity (a.u.)"}, {"sequence": "AGGTTACATATGTTCTCTTCTTTCCCTGATCCTTTTCCTACGGAGTCACCTAGTGCAG", "binding signal": "8510 fluorescence intensity (a.u.)"}, {"sequence": "CGCCTCGTCTGCGACTGACCGCCGTCGCTCGTCCGCGTTCCGGAGTCACCTAGTGCAG", "binding signal": "8690 fluorescence intensity (a.u.)"}]}]}
